The other results are listed elsewhere or left out.

The subject of this experiment is T1, CTL2-GFP (C. trachomatis L2/434/Bu, GFP-expressing).
T1 construct: L2/434/Bu, GFP-expressing
Further details: species or system HeLa; Intracellular C. trachomatis growth in HeLa cells, bulk GFP fluorescence relative to DMSO. The conditions noted are these: bulk GFP, single well; 28.5 h, 10 µM; inhibitor.
As to `CCN(CC)C(=O)CNS(=O)(=O)c1cc(Br)c(Cl)s1` [CBK034500], the “% of control remaining” value is reported as 89.8616%.

Regarding `OC1(CN2CCCC2)CCN(Cc2sccc2Cl)CC1` [CBK307491], the “% of control remaining” value amounted to 100.669%.

Regarding `CCNC(=O)C1CCCN(Cc2ncc(C)c(OC)c2C)C1` (stereo not drawn) [CBK305081], the “% of control remaining” value came to 136.657%.

Regarding `NNC(=O)CSc1nnc(-c2ccccc2)n1-c1ccccc1` [CBK223486], the “% of control remaining” value was found to be 97.3397%.

For `O=C1CC(N2CCN(c3ccccn3)CC2)C(=O)N1CCc1ccccc1` (stereo not drawn) [CBK262282], the “% of control remaining” value was 100%.

Regarding `FC(F)(F)c1cc(-c2cc(N3CCC(N4CCCCC4)CC3)ncn2)cc(C(F)(F)F)c1` [CBK037692], the “% of control remaining” value amounted to 149.993%.

Turning to `CCCOC1CCCN(Cc2c(C)n(CC(N)=O)c3ccccc23)C1` (stereo not drawn) [CBK282797], the “% of control remaining” value is given as 121.547%.

With `O=C1N/C(=N/N=C\c2cccc([N+](=O)[O-])c2)SC1Cc1ccc(Br)cc1` (stereo not drawn) [CBK263125], the “% of control remaining” value was determined as 99.7216%.

Consider `COc1ccc(CCNC(=O)c2cnc3sc(C)cn3c2=O)cc1OC` [CBK287709], for which the “% of control remaining” value amounted to 79.9684%.

As to `COc1ccc(NC(=O)NS(=O)(=O)c2sc3ccc(Cl)cc3c2C)cc1OC` [CBK156300], the “% of control remaining” value came to 117.325%.

Consider `Cn1cc(C2C[S+]([O-])CCN2Cc2csc3ccccc23)cn1` (stereo not drawn) [CBK304085], for which the “% of control remaining” value is on record as 128.013%.

For the compound `CC(NC(=O)CCC(=O)O)C12CC3CC(CC(C3)C1)C2` (stereo not drawn) [CBK287105], the “% of control remaining” value is 102.791%.

For the compound `COc1ccc(NC(=O)CCC(=O)N2CCC(C(=O)O)CC2)cc1` [CBK286588], the “% of control remaining” value is recorded as 90.459%.

On to `c1ccc2c(c1)OCC(c1nn3cnnc3s1)O2` (stereo not drawn) [CBK269277], for which the “% of control remaining” value came to 89.7016%.

`COC(=O)c1c(NC(=S)NCc2ccccn2)sc(C(=O)N(C)C)c1C` [CBK267055]: the “% of control remaining” value is reported as 159.822%.

`O=C(Nc1ccc(C(=O)Nc2cccc(-c3nc4ccccc4o3)c2)cc1)c1ccc([N+](=O)[O-])cc1` [CBK262606]: the “% of control remaining” value turned out to be 100%.

In the case of `c1nc(NCCN2CCOCC2)c2c3c(sc2n1)CCCCC3` [CBK268418], the “% of control remaining” value worked out at 102.027%.

As to `COc1ccc(S(=O)(=O)Nc2cccc(C(=O)N3CCOCC3)c2)cc1OC` [CBK039010], the “% of control remaining” value came to 124.09%.

Turning to `COc1ncccc1C(=O)Nc1ccc(C)nc1C` [CBK200292], the “% of control remaining” value was 102.326%.

Consider `Cn1cnnc1SCC(=O)N1CCc2ccccc21` [CBK287576], for which the “% of control remaining” value was determined as 139.925%.

As for `FC(F)C(F)(F)Oc1cccc(Nc2nccn3ccnc23)c1` [CBK066284], the “% of control remaining” value is 103.766%.

In the case of `COc1ccc(-c2cnc(Nc3ccc(N4CCOCC4)cc3)c3nccn23)cn1` [CBK091238], the “% of control remaining” value was 199.309%.

Consider `COc1ccc(C(c2ccccn2)N(C)C(=O)C2CCN(S(=O)(=O)C(C)C)CC2)cc1` (stereo not drawn) [CBK060280], for which the “% of control remaining” value is 100%.

`O=C(CSCc1ccc(Br)cc1)NCC1CCCO1` (stereo not drawn) [CBK268506]: the “% of control remaining” value was determined as 148.253%.

For the compound `c1cnc2c(-c3cn4ccnc4c(NC4CC4)n3)cccc2c1` [CBK037911], the “% of control remaining” value stood at 109.509%.

For `O=C(CC(CN1CCN(Cc2cccc(Cl)c2)CC1)C(=O)O)Nc1cccc(O)c1` (stereo not drawn) [CBK286811], the “% of control remaining” value worked out at 165.626%.

As to `O=C(CC1CCCCC1)N1CCC(n2nc(C3CC3)ccc2=O)CC1` [CBK284241], the “% of control remaining” value came out at 113.429%.

For `CC(C)NC(=O)CCn1c(-c2ccncc2)cc2cccnc21` [CBK284931], the “% of control remaining” value is given as 81.863%.

Regarding `O=C(Cc1ccccc1)Nc1ccc(C(=O)O)cc1NC(=O)Cc1ccccc1` [CBK287049], the “% of control remaining” value is given as 99.5947%.

For `CCC(C)(C)c1nnc(NC(=O)COc2ccc(Cl)cc2Cl)s1` [CBK058435], the “% of control remaining” value is recorded as 112.309%.

With `Cc1cc(=O)oc2cc(NC(=S)N3CCN(C/C=C/c4ccccc4)CC3)ccc12` [CBK267045], the “% of control remaining” value is on record as 164.695%.

With `O=C(c1ccccc1)c1ccc(S(=O)(=O)N2CCN(Cc3ccc(O)c(F)c3)CC2)cc1` [CBK062948], the “% of control remaining” value was determined as 101.072%.

Consider `O=C(Nc1ccccc1)O[C@@H]1CO[C@H]2[C@@H]1OC[C@@H]2NC(=O)C1CC1` [CBK289464], for which the “% of control remaining” value is listed as 130.312%.

With `COc1ccc(C(=O)Nc2cccc(-c3nc4ccccc4[nH]3)c2)c(OC)c1` [CBK072662], the “% of control remaining” value was determined as 88.2134%.

In the case of `CN(C(=O)c1ccccn1)C1CCN(c2ncnc3ccccc23)CC1` [CBK305346], the “% of control remaining” value came out at 98.859%.

For `c1cc(CSc2nnc(-c3ccncc3)o2)ccn1` [CBK270235], the “% of control remaining” value came out at 150.143%.

`CC(=O)c1cccc(NC(=O)/C(=C\c2cccnc2)NC(=O)c2ccc(C)cc2)c1` [CBK262456]: the “% of control remaining” value is given as 110.58%.

For the compound `CC(Cc1nc(-c2nccn2C)cs1)n1cc(Cl)cn1` (stereo not drawn) [CBK304114], the “% of control remaining” value came out at 15.3385%.

As to `Cc1ccc(Cl)cc1N1CCN(C(=O)COc2ccc(S(=O)(=O)Nc3ccc(F)cc3)cc2)CC1` [CBK268229], the “% of control remaining” value was 127.464%.

With `Cc1ccccc1N1CCN(Cc2cccc(C(=O)O)c2)CC1` [CBK286890], the “% of control remaining” value is 153.472%.

As to `CN(C)c1ccc(Nc2cc(-c3ccco3)ncn2)cc1` [CBK090946], the “% of control remaining” value is 135.988%.

Take `CN(C)CC1CN(C(=O)Cc2ccccc2F)Cc2ccccc2O1` (stereo not drawn) [CBK285327]: the “% of control remaining” value was 155.83%.

Turning to `Cc1csc(Sc2nccc(C(F)(F)F)n2)n1` [CBK093770], the “% of control remaining” value was determined as 93.1738%.

As for `CC1CN(S(=O)(=O)C(C)C)CCC1NCc1ccncc1` (stereo not drawn) [CBK304870], the “% of control remaining” value is reported as 92.736%.

Turning to `Cc1ccc(S(=O)(=O)N2CCN(CCCc3ccccc3)CC2)cc1` [CBK263453], the “% of control remaining” value was 115.872%.

Consider `CN(C)CC(=O)N1c2ccccc2CCc2ccc(NC(=O)c3ccccc3)cc21` [CBK261289C], for which the “% of control remaining” value worked out at 118.539%.

Regarding `O=C1CCC(C(=O)N2CCCC(c3cc4ccccc4cn3)C2)CC1` (stereo not drawn) [CBK284989], the “% of control remaining” value is given as 107.262%.

Consider `Cc1sc2nc(SCC(=O)c3c[nH]c4ccccc34)nc(O)c2c1C` [CBK264068], for which the “% of control remaining” value turned out to be 130.841%.

For the compound `Cc1ccc(Sc2nccn3c(=O)[nH]nc23)c(C)c1` [CBK288055], the “% of control remaining” value was determined as 124.52%.

For the compound `CC(=O)Nc1cccc(NC(=O)CN(C)S(=O)(=O)c2ccc(F)cc2)c1` [CBK269951], the “% of control remaining” value is 146.259%.

Turning to `CCN1C(=O)CC2(C1=O)C(=O)N(CCCOc1ccccc1OC)c1ccccc12` (stereo not drawn) [CBK075498], the “% of control remaining” value is on record as 104.161%.

Turning to `CC1CCN(S(=O)(=O)c2cccc(S(=O)(=O)c3cccc(S(=O)(=O)N4CCC(C)CC4)c3)c2)CC1` [CBK261731], the “% of control remaining” value turned out to be 118.852%.

Turning to `O=[N+]([O-])c1cc(-c2nc(-c3ccco3)c(-c3ccco3)[nH]2)ccc1Br` [CBK019778], the “% of control remaining” value is 100%.

With `CN1CCC2(CC1)CN(C(=O)C1CC1)Cc1ccccc1O2` [CBK284967], the “% of control remaining” value was 104.218%.

For `c1cnc2[nH]c([C@H]3CCCO3)c(CN3CCCCC3)c2c1` [CBK282284], the “% of control remaining” value is reported as 130.91%.

Consider `Cc1nc2c(c(=O)[nH]1)CN(Cc1ccc(Cl)cc1)CC2` [CBK282415], for which the “% of control remaining” value is reported as 134.619%.

On to `CC(C)(C)c1cc(C(=O)NCCN)n(Cc2ccc(Cl)cc2Cl)n1` [CBK116631T], for which the “% of control remaining” value was determined as 51.3918%.

Consider `CC(C)c1ccc(/C=C/C(=O)NCc2ccc(NS(C)(=O)=O)cc2)cc1` [CBK161512], for which the “% of control remaining” value came to 44.2788%.

As for `CN1CCN(c2nccnc2-c2ccccc2)CC1` [CBK088825], the “% of control remaining” value turned out to be 111.331%.

As to `O=c1[nH]c2ncc(-c3ccc(OC(F)(F)F)cc3)nc2n1Cc1ccc(Cl)cc1` [CBK064409], the “% of control remaining” value is 149.363%.

As for `O=C(O)c1cccc(Cn2ccc3c(F)cccc32)c1` [CBK003453], the “% of control remaining” value is listed as 169.339%.

In the case of `FC(F)(F)Oc1ccccc1-c1nnc(NC2CCCCCC2)s1` [CBK074041], the “% of control remaining” value was found to be 121.652%.

On to `CCCCCn1c(=O)c(-c2nc3ccccc3c(=O)[nH]2)c(O)c2ccccc21` [CBK291215], for which the “% of control remaining” value was determined as 95.9531%.

Turning to `O=C(CSc1nnc(-c2ccncc2)n1-c1ccc(Cl)cc1)Nc1ccccc1-c1ccccc1` [CBK266205], the “% of control remaining” value stood at 156.265%.

Take `CCOC(=O)c1cnc2ccccc2c1NCCN1CCOCC1` [CBK304328]: the “% of control remaining” value came out at 126.515%.

As to `Cc1ccn2cc(-c3ccc4c(c3)CCN4S(C)(=O)=O)cc2c1` [CBK285252], the “% of control remaining” value is given as 148.954%.

As to `O=C(NCc1ccccn1)c1cc(-c2ccc(Cl)cc2)[nH]n1` [CBK116549], the “% of control remaining” value is 89.266%.

Turning to `O=C(c1ccc(F)cc1)N1CCN(c2ccc(Nc3ccncc3)nn2)CC1` [CBK287836], the “% of control remaining” value is recorded as 107.86%.

In the case of `O=S1(=O)CCC(c2nnc(C3(c4ccc(Br)cc4)CCOCC3)o2)C1` (stereo not drawn) [CBK305513], the “% of control remaining” value amounted to 100.049%.

Consider `NS(=O)(=O)c1ccc(NC(=O)/C=C/c2cccc([N+](=O)[O-])c2)cc1` [CBK261616], for which the “% of control remaining” value is 109.293%.

As to `CCCN1CCN(C(=O)c2cnc(C)cn2)C(Cc2cccc(-c3cccs3)c2)C1=O` (stereo not drawn) [CBK285678], the “% of control remaining” value worked out at 142.728%.

`c1ccc2c(-c3ccc(OC4CCNCC4)cc3)cncc2c1` [CBK126578]: the “% of control remaining” value amounted to 86.9379%.

Regarding `N#C/C(=C\c1ccc(-c2ccc(S(N)(=O)=O)cc2)o1)c1nc2ncc(Br)cc2[nH]1` [CBK266288], the “% of control remaining” value is listed as 100%.

With `COc1ccc(C(=O)NC(=S)Nc2ccc(O)c(-c3nc4cc(C)c(C)cc4o3)c2)cc1[N+](=O)[O-]` [CBK264039], the “% of control remaining” value is listed as 97.4319%.

Consider `Cc1cc(C=O)c(O)c(/C=N/CC/N=C/c2cc(C)cc(C=O)c2O)c1` [CBK262149], for which the “% of control remaining” value came out at 114.733%.

On to `O=C(CO)N1CC2(CCN(Cc3ccc4ccccc4c3)CC2)c2ccccc21` [CBK131501], for which the “% of control remaining” value is reported as 94.7419%.

As to `COCCCN(Cc1ccc(F)c(F)c1)Cc1ccccn1` [CBK282961], the “% of control remaining” value came to 127.279%.

With `COCCn1c(CN2Cc3ccc(Cl)cc3C2=O)nnc1[C@H]1C[C@@H](N)C1` [CBK307289], the “% of control remaining” value is recorded as 104.827%.

The values are drawn from paper PMC12040169 (PLOS Biology, 2025).
